Data source: PubChem BioAssay AID602196 (INSERM, 2012)
This is a random part of about 23,000 deposited reagents. Over the whole deposit, 455 (2%) are marked active. 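Active includes both protection and sensitisation; some change values fall well beyond the stated -50 to +50 range.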 Not all columns of the deposit are shown. Reagent sequences are not shown. Not stated in the record: the amount of reagent.

Assay: 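Knock-downs that protect lung cancer cells from cisplatin or sensitise them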
System: human A549 lung cancer cells
Reagent: siRNA pair against human genes
Duration: 48 h transfection before cisplatin; time from cisplatin to read-out not stated
Conditions: cisplatin at a dose killing half of control-siRNA cells; exact dose and duration not given
Measured: 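Cisplatin cell death as a shift from the 50% death seen with control siRNA; siRNAs toxic or growth-blocking alone scored 0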
Reading the numbers: two-siRNA summed score (-2 to +2): higher = both siRNAs protect from cisplatin killing; -2 means both sensitise; mean protection from cisplatin (shift in death): higher = protection from cisplatin killing
Hit rule: 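siRNAs harmful alone (LDH or WST-1) get 0; others get +1 for less and -1 for more cisplatin killing; genes are active when the two siRNAs give the same sign, summing to ±2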
Meaning of the calls: active = both siRNAs shift cisplatin killing the same way; inactive = no consistent shift, or siRNA harmful alone

ENOSF1 showed two-siRNA summed score (-2 to +2) = 0; mean protection from cisplatin (shift in death) (%) = 11.7; inactive. Depletion of DSCR4 resulted in: two-siRNA summed score (-2 to +2) = 0; mean protection from cisplatin (shift in death) (%) = 6.2; inactive. HIPK2 showed two-siRNA summed score (-2 to +2) = 0; mean protection from cisplatin (shift in death) (%) = 10.3; inactive. LOC392872 scored two-siRNA summed score (-2 to +2) = 0; mean protection from cisplatin (shift in death) (%) = 6; inactive. Knock-down of ZMIZ1 resulted in: two-siRNA summed score (-2 to +2) = 0; mean protection from cisplatin (shift in death) (%) = 6.2; inactive. Depletion of IQGAP2 came out at: two-siRNA summed score (-2 to +2) = 0; mean protection from cisplatin (shift in death) (%) = -11.5; inactive.

TRIM49B gave two-siRNA summed score (-2 to +2) = 0; mean protection from cisplatin (shift in death) (%) = -0.9; inactive. After knock-down of LOC441027, the record shows two-siRNA summed score (-2 to +2) = 0; mean protection from cisplatin (shift in death) (%) = 10.5; inactive. With knock-down of BCAS3 the results were two-siRNA summed score (-2 to +2) = 1; mean protection from cisplatin (shift in death) (%) = 7.9; inactive. For LOC401513 the deposit lists two-siRNA summed score (-2 to +2) = 1; mean protection from cisplatin (shift in death) (%) = 20.2; inactive. Against LOC390121 the deposit lists two-siRNA summed score (-2 to +2) = 1; mean protection from cisplatin (shift in death) (%) = 8.8; inactive. Depletion of MUC3B resulted in: two-siRNA summed score (-2 to +2) = -1; mean protection from cisplatin (shift in death) (%) = -16.9; inactive.

For ZFYVE26 the deposit lists two-siRNA summed score (-2 to +2) = 0; mean protection from cisplatin (shift in death) (%) = 1.1; inactive. Depletion of TUB resulted in: two-siRNA summed score (-2 to +2) = 0; mean protection from cisplatin (shift in death) (%) = 19.3; inactive. For ASB17 the deposit lists two-siRNA summed score (-2 to +2) = 0; mean protection from cisplatin (shift in death) (%) = 8.4; inactive.

5 entries from above, set out differently.
{"gene":"LOC401513","two-siRNA summed score (-2 to +2)":1,"mean protection from cisplatin (shift in death) (%)":20.2,"Call":"inactive"}
{"gene":"LOC390121","two-siRNA summed score (-2 to +2)":1,"mean protection from cisplatin (shift in death) (%)":8.8,"Call":"inactive"}
{"gene":"MUC3B","two-siRNA summed score (-2 to +2)":-1,"mean protection from cisplatin (shift in death) (%)":-16.9,"Call":"inactive"}
{"gene":"ZFYVE26","two-siRNA summed score (-2 to +2)":0,"mean protection from cisplatin (shift in death) (%)":1.1,"Call":"inactive"}
{"gene":"TUB","two-siRNA summed score (-2 to +2)":0,"mean protection from cisplatin (shift in death) (%)":19.3,"Call":"inactive"}

The results go on:
Against OR2H2, the entry reads two-siRNA summed score (-2 to +2) = 0; mean protection from cisplatin (shift in death) (%) = 4.6; inactive. SNRPG showed two-siRNA summed score (-2 to +2) = 0; mean protection from cisplatin (shift in death) (%) = 2.6; inactive. With knock-down of IFT27, the screen gave two-siRNA summed score (-2 to +2) = 0; mean protection from cisplatin (shift in death) (%) = -11.8; inactive. Knock-down of KCNK7 came out at: two-siRNA summed score (-2 to +2) = 0; mean protection from cisplatin (shift in death) (%) = -5.6; inactive. RRN3 scored two-siRNA summed score (-2 to +2) = 0; mean protection from cisplatin (shift in death) (%) = 4.2; inactive. After knock-down of SNX17, the record shows two-siRNA summed score (-2 to +2) = -1; mean protection from cisplatin (shift in death) (%) = -13.6; inactive.

Knock-down of SIRPD gave: two-siRNA summed score (-2 to +2) = 0; mean protection from cisplatin (shift in death) (%) = 3.2; inactive. Silencing of SRR came out at: two-siRNA summed score (-2 to +2) = 1; mean protection from cisplatin (shift in death) (%) = 15.6; inactive. DSCR9 gave two-siRNA summed score (-2 to +2) = 1; mean protection from cisplatin (shift in death) (%) = 14.6; inactive. Depletion of RPTOR resulted in: two-siRNA summed score (-2 to +2) = 0; mean protection from cisplatin (shift in death) (%) = -7.1; inactive. Depletion of KCNA4 gave: two-siRNA summed score (-2 to +2) = 0; mean protection from cisplatin (shift in death) (%) = 1.5; inactive. REV1 showed two-siRNA summed score (-2 to +2) = 0; mean protection from cisplatin (shift in death) (%) = -23.3; inactive.

For LOC441383 the deposit lists two-siRNA summed score (-2 to +2) = 0; mean protection from cisplatin (shift in death) (%) = 5.9; inactive. ATP6V0A2 showed two-siRNA summed score (-2 to +2) = 0; mean protection from cisplatin (shift in death) (%) = 3.6; inactive. Against UTP20, the entry reads two-siRNA summed score (-2 to +2) = 1; mean protection from cisplatin (shift in death) (%) = 10.3; inactive. KYAT1 showed two-siRNA summed score (-2 to +2) = 0; mean protection from cisplatin (shift in death) (%) = 1.3; inactive.
